Assay results taken from article PMC11872507, “Lasso peptides sviceucin and siamycin I exhibit anti-virulence activity and restore vancomycin effectiveness in vancomycin-resistant pathogens” (iScience, 2025).
These are yes or no findings as the source states them, for the method shown. Sequences can lack the tags named with a protein.

Biological target: T1, C-His6-VanS^127-384 (UniProt Q06240)
T1 sequence: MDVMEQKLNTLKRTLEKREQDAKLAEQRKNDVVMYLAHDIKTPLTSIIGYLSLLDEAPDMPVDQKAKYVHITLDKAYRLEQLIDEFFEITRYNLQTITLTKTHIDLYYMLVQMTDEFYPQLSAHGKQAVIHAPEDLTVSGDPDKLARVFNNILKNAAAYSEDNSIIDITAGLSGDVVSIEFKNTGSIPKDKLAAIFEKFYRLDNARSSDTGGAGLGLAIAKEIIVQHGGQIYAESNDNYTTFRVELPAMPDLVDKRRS
Test: differential scanning fluorimetry; 10 μM VanS, SYPRO Orange, 20 mM potassium phosphate buffer pH 7.5; lasso peptides at siamycin I 6 to 90 μM, sviceucin 12 to 180 μM, microcin J25 25 to 200 μM; Kd from the change of the melting temperature, simple cooperative model; both purified

GGAGHVPEYFVGIGTPISFYG (peptide, UniProt Q9X2V7 38-58, lasso peptide (N-terminal macrolactam ring)) [microcin J25]
binding: no binding (tested: 25 to 200 μM)
